The results in this text go back to article PMC3027643.

Sequences of proteins named here, by UniProt entry; tags and fusion partners are left off. Residues count along the entry.
UniProt Q16595, residues 42-210: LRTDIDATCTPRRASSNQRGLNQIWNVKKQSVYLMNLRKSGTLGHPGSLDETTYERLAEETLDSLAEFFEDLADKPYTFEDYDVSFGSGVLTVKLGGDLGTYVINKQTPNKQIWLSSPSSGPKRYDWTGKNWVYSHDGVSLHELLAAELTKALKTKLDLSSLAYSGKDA

These are yes or no findings as the source states them, for the method shown. In cells and extracts the contact can be indirect.

In this test the target is T1, mitochondrial aconitase (mACO) (human (endogenous in HeLa)) (UniProt Q99798).
T1 sequence: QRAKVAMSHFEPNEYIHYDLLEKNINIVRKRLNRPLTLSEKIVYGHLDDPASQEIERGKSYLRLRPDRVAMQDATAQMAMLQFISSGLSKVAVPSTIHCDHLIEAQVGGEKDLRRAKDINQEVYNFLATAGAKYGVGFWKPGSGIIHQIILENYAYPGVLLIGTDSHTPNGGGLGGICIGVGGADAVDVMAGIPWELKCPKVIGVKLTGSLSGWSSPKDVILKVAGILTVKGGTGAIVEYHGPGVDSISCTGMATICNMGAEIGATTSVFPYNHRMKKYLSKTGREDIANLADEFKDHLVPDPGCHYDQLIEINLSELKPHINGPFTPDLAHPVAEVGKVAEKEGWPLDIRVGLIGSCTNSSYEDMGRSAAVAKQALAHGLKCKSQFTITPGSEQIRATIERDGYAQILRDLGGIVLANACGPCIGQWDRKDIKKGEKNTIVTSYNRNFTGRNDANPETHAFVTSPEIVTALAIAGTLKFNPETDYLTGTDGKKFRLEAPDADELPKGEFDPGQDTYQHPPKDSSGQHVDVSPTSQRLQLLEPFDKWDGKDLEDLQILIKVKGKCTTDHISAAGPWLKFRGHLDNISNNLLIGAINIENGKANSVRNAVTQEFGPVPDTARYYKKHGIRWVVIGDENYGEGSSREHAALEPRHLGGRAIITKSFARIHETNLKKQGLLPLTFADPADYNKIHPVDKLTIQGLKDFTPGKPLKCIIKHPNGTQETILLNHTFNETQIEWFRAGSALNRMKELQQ
Description: co-IP; IP of endogenous mitochondrial aconitase from HeLa mitochondrial extracts with an anti-aconitase antibody; mitochondria treated with 100 µM hydrogen peroxide and 2 mM citrate; western blot for frataxin.

As to “endogenous frataxin (from UniProt Q16595 42-210)”, the binding entry was “no binding”.
